# Measured values reported in paper PMC7819943, “Rice protein-binding microarrays: a tool to detect cis-acting elements near promoter regions in rice”.
# Some of the results follow.
# Target: T1, OsSMF1 (Oryza sativa, UniProt Q6ZLB0 1-436)
# T1 sequence: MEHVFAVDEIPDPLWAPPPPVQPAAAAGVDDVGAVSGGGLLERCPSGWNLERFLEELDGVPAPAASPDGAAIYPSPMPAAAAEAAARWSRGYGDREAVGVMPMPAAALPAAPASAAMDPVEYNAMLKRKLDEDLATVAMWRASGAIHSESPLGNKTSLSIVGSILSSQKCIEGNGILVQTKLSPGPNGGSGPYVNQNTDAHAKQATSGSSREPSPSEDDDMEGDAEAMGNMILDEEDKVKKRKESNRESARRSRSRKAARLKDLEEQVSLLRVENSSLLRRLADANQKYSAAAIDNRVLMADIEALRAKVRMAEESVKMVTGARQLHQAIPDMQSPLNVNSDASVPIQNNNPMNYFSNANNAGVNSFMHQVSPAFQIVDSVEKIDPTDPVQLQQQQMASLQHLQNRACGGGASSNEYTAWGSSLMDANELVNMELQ
# Assay: protein-binding microarray (RPBM); PBS, 2% BSA, 51.3 ng/ul salmon testes DNA, 50 uM zinc acetate, 200 nM TF, 25 C, 1 h; high values mean tight binding
# Details: protein: recombinant; tags: N-terminal polyhistidine and DsRed monomer fusion (pET32a); chain copies: 2; label: CyDye5-dUTP incorporated in the synthesized complementary strand; 3' TTTTT single-stranded linker to array surface; dsDNA, one strand shown
# Summary of the method: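 The binding signal for each feature is its fluorescence intensity in arbitrary units. An Axon 4000B scanner was used to read a custom Agilent array that had been made double-stranded with Cy5-dUTP primer extension, blocked with 2% BSA, incubated at 25 °C for 1 h with 200 nM protein in PBS, 2% BSA, salmon testes DNA and 50 µM zinc acetate, and washed. The protein was an N-terminal polyhistidine–DsRed transcription factor fusion from E. coli BL21-CodonPlus, purified on Ni–NTA.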
row,Sequence,binding signal
1,AACGTTCCGGACCGTTAGATGACACAAGCAACGGTGGATCCGGAGTCACCTAGTGCAG,3870 fluorescence intensity (a.u.)
2,CTTCACCGAGCTGCTCCACCTCCGTTTTGGCCCTCCCCTACGGAGTCACCTAGTGCAG,26800 fluorescence intensity (a.u.)
3,GGGGAAGTACGGCGTGGAGCTGGACGCCGTCGCCCTCAACCGGAGTCACCTAGTGCAG,33900 fluorescence intensity (a.u.)
4,CTCGCATTCCCTCGCCTGGGAAGAGCACGTGGCGAGCGCACGGAGTCACCTAGTGCAG,3310 fluorescence intensity (a.u.)
5,GCGATCCAAAGATATCCGAGGTGACGCCGTGTCATCCCTACGGAGTCACCTAGTGCAG,5610 fluorescence intensity (a.u.)
6,GGTGTTGTGGTGAACGGGTCTATATTACGATGAGAGGCCCCGGAGTCACCTAGTGCAG,3880 fluorescence intensity (a.u.)
7,ACATCTCATAATTAACGTGCGCGTCATCAATAGCATTAATCGGAGTCACCTAGTGCAG,3660 fluorescence intensity (a.u.)
8,GATGTTAATGAATCTAGGCACACATATATATCTAGATTCACGGAGTCACCTAGTGCAG,4900 fluorescence intensity (a.u.)
9,GCGCGCGCCACCGCACCCGCGACGCCGACGTGTTCATGACCGGAGTCACCTAGTGCAG,5890 fluorescence intensity (a.u.)
10,TGAGTTGAGGACTTGTCACCTCGTCGTCATAGTCGTGGAGCGGAGTCACCTAGTGCAG,5830 fluorescence intensity (a.u.)
11,GACCTGTCTACCGCCGCCCTAGTGACTAATGTTGACCACACGGAGTCACCTAGTGCAG,3580 fluorescence intensity (a.u.)
12,AATCCATTTGATGATTTGAGTAGTTGTCATAGCACAGGGCCGGAGTCACCTAGTGCAG,36000 fluorescence intensity (a.u.)
13,AAGCGGTCAAGACGCAACACACGTCAGGCCTCGAGACCAACGGAGTCACCTAGTGCAG,5410 fluorescence intensity (a.u.)
14,AATGATGACAAGAGACCATTCTACGTCAGCAAAGGAATTACGGAGTCACCTAGTGCAG,7420 fluorescence intensity (a.u.)
15,CGCTTCCCTTGATATGACGCACACGATTTTACTGCTGGCCCGGAGTCACCTAGTGCAG,4570 fluorescence intensity (a.u.)
16,TCATGTGCAGTTTTCCGAACTACTAAACGATATATTATTTCGGAGTCACCTAGTGCAG,3460 fluorescence intensity (a.u.)
17,GCCGGGGCCGGGGCGGGCGTGGGCCCCTTCGCTCCGATGGCGGAGTCACCTAGTGCAG,4096 fluorescence intensity (a.u.)
18,CGCTAAAGAAGACGCTAATTGCGATCGAGTTAACCCGGTGCGGAGTCACCTAGTGCAG,3360 fluorescence intensity (a.u.)
19,GCCTTCCCTTCCTTCCTCTGCCAATGGCCGCGCGTCAGCCCGGAGTCACCTAGTGCAG,3390 fluorescence intensity (a.u.)
20,ACCCTCTTCTTCGCCCGCCGCCTGCGTGTCGCGCCGATCTCGGAGTCACCTAGTGCAG,4690 fluorescence intensity (a.u.)
21,CCATCTTCATCTCCATATCTTCTCCTCCTCGCGTCGGCAGCGGAGTCACCTAGTGCAG,3270 fluorescence intensity (a.u.)

row,Sequence,binding signal
1,TAGTTGATGAATACTCCCTCCGTTTCATAATGTAAGTCATCGGAGTCACCTAGTGCAG,3260 fluorescence intensity (a.u.)
2,AGCTTTAGTTGTCGCCGACCAGATTGACCACCAGTTCCAACGGAGTCACCTAGTGCAG,3150 fluorescence intensity (a.u.)
3,GTTCCCTCCACTACTAATTACACGTAGGCAGTACGATCACCGGAGTCACCTAGTGCAG,20800 fluorescence intensity (a.u.)
4,AATTACATGCAAGTTACAGTGTAATTACACTACGATTGTACGGAGTCACCTAGTGCAG,3280 fluorescence intensity (a.u.)
5,CAGAAACTGGTTGCCATCTTGGATGCCTGCGTGTGAATTGCGGAGTCACCTAGTGCAG,3800 fluorescence intensity (a.u.)
6,TACGAACCCAATCCTAGTCACCACGATCCACTCCAAAGCGCGGAGTCACCTAGTGCAG,4120 fluorescence intensity (a.u.)
7,GATGGGTGGGGATGAGGCCGGGCGGCCAATCCAACTTGAGCGGAGTCACCTAGTGCAG,3940 fluorescence intensity (a.u.)
8,ATATAGATCATCATCAAGACTACGTATTATTCACTATTCACGGAGTCACCTAGTGCAG,3160 fluorescence intensity (a.u.)
9,CGCGCGCGTCGGCGTTCCACCCGGACGTGTCCCGCGCGGTCGGAGTCACCTAGTGCAG,4200 fluorescence intensity (a.u.)
10,ATGCCATGTGTATGACATGTGGCTTTGGTGATGATTTCCCCGGAGTCACCTAGTGCAG,4870 fluorescence intensity (a.u.)
11,AATAGGTGTGAAATCAAAATCCCCTTCTAATCTTCTTGTGCGGAGTCACCTAGTGCAG,14600 fluorescence intensity (a.u.)
12,CGTGGTCTTGCCTATGTGGCATGCCACGTGGACGATGACACGGAGTCACCTAGTGCAG,25600 fluorescence intensity (a.u.)
13,AGAAGAAGAGGAAGCTGTGGGTCAGGTGGGTTTCCGCCCACGGAGTCACCTAGTGCAG,41300 fluorescence intensity (a.u.)
14,TGCAATGTACTTTGCATGCGTCACACGCCCTTGTCAAGAACGGAGTCACCTAGTGCAG,6550 fluorescence intensity (a.u.)
15,CATTTGCCTTAGTCCTTGCGCGTGCTTCATTGATTTCTGCCGGAGTCACCTAGTGCAG,3480 fluorescence intensity (a.u.)
16,CTTTCCAACGTTGGTGAATCATGATCGGTCAATTTGCAACCGGAGTCACCTAGTGCAG,4610 fluorescence intensity (a.u.)
17,GAGTAGAGGTGGGAGGAAGCGGTGGTGTGGTGGGGTGGGGCGGAGTCACCTAGTGCAG,8310 fluorescence intensity (a.u.)
18,CCAGATCGACCCCGACGTGGCTGTGTGTCATCCTATCCCACGGAGTCACCTAGTGCAG,7670 fluorescence intensity (a.u.)
19,TCGGTAGAGGTGGAGTAGAGTCTGACATATCCGGTATATACGGAGTCACCTAGTGCAG,3680 fluorescence intensity (a.u.)
20,GGCGTGCCGTTACTGGGTCCAACCGTCCAAGCACACACTACGGAGTCACCTAGTGCAG,3490 fluorescence intensity (a.u.)
21,TTCCTATTTAACTCCACATATTTCCTTAATACACGTGTCTCGGAGTCACCTAGTGCAG,8090 fluorescence intensity (a.u.)

# An excerpt of these results, with tabs.
row	Sequence	binding signal
11	AATAGGTGTGAAATCAAAATCCCCTTCTAATCTTCTTGTGCGGAGTCACCTAGTGCAG	14600 fluorescence intensity (a.u.)
12	CGTGGTCTTGCCTATGTGGCATGCCACGTGGACGATGACACGGAGTCACCTAGTGCAG	25600 fluorescence intensity (a.u.)
13	AGAAGAAGAGGAAGCTGTGGGTCAGGTGGGTTTCCGCCCACGGAGTCACCTAGTGCAG	41300 fluorescence intensity (a.u.)
14	TGCAATGTACTTTGCATGCGTCACACGCCCTTGTCAAGAACGGAGTCACCTAGTGCAG	6550 fluorescence intensity (a.u.)
15	CATTTGCCTTAGTCCTTGCGCGTGCTTCATTGATTTCTGCCGGAGTCACCTAGTGCAG	3480 fluorescence intensity (a.u.)
16	CTTTCCAACGTTGGTGAATCATGATCGGTCAATTTGCAACCGGAGTCACCTAGTGCAG	4610 fluorescence intensity (a.u.)
17	GAGTAGAGGTGGGAGGAAGCGGTGGTGTGGTGGGGTGGGGCGGAGTCACCTAGTGCAG	8310 fluorescence intensity (a.u.)
18	CCAGATCGACCCCGACGTGGCTGTGTGTCATCCTATCCCACGGAGTCACCTAGTGCAG	7670 fluorescence intensity (a.u.)
19	TCGGTAGAGGTGGAGTAGAGTCTGACATATCCGGTATATACGGAGTCACCTAGTGCAG	3680 fluorescence intensity (a.u.)
20	GGCGTGCCGTTACTGGGTCCAACCGTCCAAGCACACACTACGGAGTCACCTAGTGCAG	3490 fluorescence intensity (a.u.)
21	TTCCTATTTAACTCCACATATTTCCTTAATACACGTGTCTCGGAGTCACCTAGTGCAG	8090 fluorescence intensity (a.u.)
